Our source for the cell number change and AC50 values is PubChem BioAssay AID2685 (National Center for Advancing Translational Sciences (NCATS), 2010).

The nature of this experiment: qHTS Assay for Lipid Storage Modulators in Drosophila S3 Cells.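 For cell number change: cells counted by Cell Tracker Red CMTPX staining in the red channel.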 The settings on record: BODIPY lipid droplet fluorescence, 18-24 h; for cell number change: measured here: cell count max response, cells fed with added oleic acid. The method in brief: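 Drosophila S3 cells got compounds at several concentrations plus oleic acid (400 uM solution). Laser-scanning cytometry with 488 nm excitation read lipid droplets at 500-530 nm and cells at 575-640 nm. Percent activity was relative to 20 uM Triacsin C.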

Where [1] appears, read: measured here: lipid fluorescence (Fed channel) AC50, cells fed with added oleic acid.
Setting [2] is: measured here: cell number channel AC50, cells fed with added oleic acid.

Structures are written as SMILES. This is one part of the list. The main result of the screen is listed elsewhere. These columns were measured beside it and carry no call. Compounds called inactive in the main read-out are mostly missing here. Words in brackets tell the shape of the fitted curve; partial curves, single points and poor fits give uncertain potencies.

In the case of `CN1C(=O)CC(C(=O)O)SC1=Nc1cccc(C(F)(F)F)c1` (configuration not stated), the cell number change is -23.9%. In addition, the AC50 under setting [1] is 29.1 µM [falling, partial curve, poor fit]. With `CCOC(=O)N1CCC(c2cc(=O)n3[nH]ccc3n2)CC1`, the AC50 under setting [1] was 14.6 µM [rising, partial curve]. As to `C[C@@H]1CC=C[C@H]2[C@H]1C(=O)N(Cc1ccccc1)[C@H]2c1ccc(F)c(Br)c1`, the cell number change is -68.3%. Also, the AC50 under setting [2] is 29.1 µM [falling, single point]. `O=c1c2ccccc2n(CC(O)CN2CCCCC2)c2ccccc12` (configuration not stated): the cell number change is 18.2%. Besides, the AC50 under setting [1] was 29.1 µM [falling, single point]. For `CCOc1cccc(NC(=O)CSc2nncn2N)c1`, the cell number change was -18.1%. Besides, under setting [1], the AC50 is 0.164 µM [falling, full curve, poor fit].

On to `COc1ccccc1C(=O)NCCc1c(C)[nH]c2c(C)ccc(F)c12`, for which the cell number change was -9.71%. For the same compound, the AC50 under setting [2] was 0.146 µM [falling, full curve, poor fit]. Moreover, the AC50 under setting [1] is 1.64 µM [rising, partial curve].

Take `COc1cc(-n2c(C)nc3cccnc32)c(Cl)cc1C(=O)O`: the cell number change came to 7.04%. Consider `S=c1[nH]ncc2ccccc12`, for which the cell number change was -2.1%. In addition, the AC50 under setting [1] was 4.11 µM [rising, single point]. As for `CCOc1ccccc1NC(=S)NCc1ccco1`, the cell number change was determined as 106%. Also, under setting [2], the AC50 is 16.4 µM [rising, partial curve]. For the same compound, under setting [1], the AC50 was 29.1 µM [rising, single point].

Regarding `Cn1c(=O)c2c(SCC(=O)N3CCOCC3)nc(CC(C)(C)C)nc2n(C)c1=O`, the cell number change is -30.4%. In addition, the AC50 under setting [2] is 2.31 µM [falling, full curve, poor fit]. Also, the AC50 under setting [1] is 2.31 µM [falling, full curve]. `COc1cc(OC)cc(-c2nnc(SCC(=O)N(Cc3ccccc3)C(C)(C)C)o2)c1`: the cell number change is -25%. In addition, the AC50 under setting [1] is 29.1 µM [falling, single point].

For `CCn1nnc2cc(C(=O)NCC(c3ccccc3OC)N(C)C)ccc21` (configuration not stated), the cell number change was -17.1%. For the same compound, the AC50 under setting [1] is 35.5 µM [rising, single point]. As to `CCc1ccc(S(=O)(=O)NCc2cn3ccsc3n2)s1`, the AC50 under setting [1] is 0.731 µM [rising, single point]. The same measure, in the same setting: as for `CCn1nnnc1SCC(=O)N1c2ccccc2CCc2ccccc21`, the figure is 9.2 µM [rising, partial curve]. As for `CCOc1ccc(-c2nc(CSCC(=O)NCC3CCCO3)c(C)o2)cc1` (configuration not stated), the cell number change is -13%. Besides, the AC50 under setting [1] is 23.1 µM [rising, single point]. As for `Cc1ccc(N(CC(=O)N2CCCCCC2)S(=O)(=O)c2ccccc2)cc1`, the cell number change was 0.87%.

Turning to `Cc1ccc(C(=O)Nc2ccc(S(=O)(=O)N3CCc4ccccc4C3)cc2)o1`, the cell number change is -1.49%. Further, the AC50 under setting [1] is 5.8 µM [rising, partial curve].

The term AC50 denotes the concentration giving half of the maximal activity seen. Low readings indicate activity at low concentration, high ones activity only at high concentration.
